# PubChem BioAssay AID1671190 (National Center for Advancing Translational Sciences (NCATS), 2021)
# The chains behind the UniProt entries cited, without tags or fusion partners. Where a name states a change or a piece, a line headed by the entry shows the natural chain unless it says otherwise.
# UniProt P18054: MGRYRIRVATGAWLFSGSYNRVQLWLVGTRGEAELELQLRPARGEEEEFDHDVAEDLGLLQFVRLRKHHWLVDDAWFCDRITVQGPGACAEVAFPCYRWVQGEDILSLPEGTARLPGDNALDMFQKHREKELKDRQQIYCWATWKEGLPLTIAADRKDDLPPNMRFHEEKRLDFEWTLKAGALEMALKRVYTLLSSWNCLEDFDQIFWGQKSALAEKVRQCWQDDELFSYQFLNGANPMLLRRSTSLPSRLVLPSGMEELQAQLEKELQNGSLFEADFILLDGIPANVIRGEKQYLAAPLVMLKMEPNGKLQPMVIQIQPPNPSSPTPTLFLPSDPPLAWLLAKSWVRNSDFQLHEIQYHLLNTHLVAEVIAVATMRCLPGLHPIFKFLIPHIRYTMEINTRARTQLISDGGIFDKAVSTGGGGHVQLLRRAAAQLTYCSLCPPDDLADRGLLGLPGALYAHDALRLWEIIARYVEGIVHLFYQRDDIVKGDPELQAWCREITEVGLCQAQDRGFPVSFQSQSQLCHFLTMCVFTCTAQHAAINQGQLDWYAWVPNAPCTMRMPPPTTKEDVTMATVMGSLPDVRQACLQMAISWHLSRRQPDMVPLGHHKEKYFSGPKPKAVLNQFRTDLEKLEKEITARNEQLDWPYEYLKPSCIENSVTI
# Where “and” joins values, the source holds several entries; their conditions need not be identical. Equal entries are not always repeated. Screen size: about 580,000 compounds; about 6,100 (1.1%) were called active. Inconclusive results, whose numbers are uncertain, are shown with a selection of clear calls. The call rests on the fitted dose curve; in most records, active means well fitted inhibition curve with a large enough effect; inconclusive means small, poorly fitted or top-dose-only effect, or another doubt; inactive means no such curve, though single readings can be large or run the other way. A potency beside an inconclusive call is a rough fit, not a confirmed value.
# Target: Polyunsaturated fatty acid lipoxygenase ALOX12 (Homo sapiens) (UniProt P18054)
# Experiment: Primary qHTS assay for inhibitors of human arachidonate 12S-lipoxygenase (ALOX12): Round 2
# Details: purified 12hLO, xylenol orange hydroperoxide absorbance; activity change, negative = inhibition: at 108 µM (top of the series) unless noted
# Procedure, shortened: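 Hydroperoxide product was detected by ferrous iron/xylenol orange as the 573 to 405 nm absorbance ratio. Arachidonic acid at 40 uM (final) was turned over for 30 min at room temperature by 150 nM human 12hLO, pH 7.0 Hepes buffer, after 15 min compound preincubation.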
# On the % scale 0 is the no-effect control and ±100 the full control effect; potency means the concentration at half of the fitted maximal effect.
SMILES,Potency,"activity change, negative = inhibition"
COCCNC(=O)c1cc(-c2ccccc2Cl)nc2ccccc12,"inconclusive: 89.1 µM [inhibitor, partial curve, poor fit]",
NC(=S)NCc1ccccc1Cl,"inconclusive: 31.6 µM [inhibitor, partial curve, poor fit]",
Cc1c(CCOC(=O)C23CC4CC(CC(C)(C4)C2)C3)sc[n+]1CC(=O)c1ccccc1,"inconclusive: 50.1 µM [inhibitor, partial curve, poor fit]",
CC(=O)Nc1ccc(NC(=O)c2csnn2)cc1,inactive,
Cc1ccc(S(=O)(=O)N2[C@@H](c3ccccc3)C(C(=O)O)=CC[C@H]2c2ccc3c(c2)OCO3)cc1,"inconclusive: 56.2 µM [inhibitor, partial curve, poor fit]",
CC(Oc1ccc(-c2ccccc2)cc1)C(=O)NC(C)(C#N)C(C)C (stereo not drawn),"inconclusive: 5.62 µM [inhibitor, partial curve, poor fit]",
C/C(=N\NC(=O)c1ccn(C)n1)c1ccc(NC(=O)c2cccc(F)c2)cc1,active: 4.47 µM,
COc1cccc([S+](=O)([O-])N2CCCC3(CC(c4ccccn4)=NO3)C2)c1 (stereo not drawn),"inconclusive: 89.1 µM [inhibitor, single point]",
Cn1cnnc1Sc1ccc(C(=O)NCCC(c2ccccc2)c2ccccc2)cc1[N+](=O)[O-],"inconclusive: 44.7 µM [inhibitor, partial curve]",
CN1CCN(C2=C(Cl)C(=O)c3ccccc3C2=O)CC1,"inconclusive: 50.1 µM [inhibitor, partial curve, poor fit]",
O=C1c2ccccc2C(=O)C1c1ccncc1,"inconclusive: 20 µM [inhibitor, partial curve, poor fit]",
COc1ccc(CCNCC(=O)N2C(C)CCCC2C)cc1OC (stereo not drawn),"inconclusive: 25.1 µM [inhibitor, full curve, poor fit]",
CCCCN1CN(S(=O)(=O)c2cccs2)c2nc3ccccc3nc21,"inconclusive: 44.7 µM [inhibitor, partial curve, poor fit]",
Cc1nn(C(=O)c2ccc([N+](=O)[O-])cc2)c(C)c1Br,"inconclusive: 126 µM [inhibitor, single point]",
Cc1ccc(S(=O)(=O)N2C[C@H]3[C@H]4C(=O)N(C5CCCCC5)C(=O)[C@H]4CC(=O)[C@H]3[C@@H]2c2cccc3ccccc23)cc1,"inconclusive: 178 µM [inhibitor, partial curve, poor fit]",
COc1cccc2cc(C(=O)C3=C(O)C(=O)N(CCN(C)C)C3c3ccc(Cl)cc3)oc12 (stereo not drawn),"inconclusive: 28.2 µM [inhibitor, partial curve, poor fit]",
CN(C)C(=O)CN1CCN(C(=O)c2cc(-c3cccnc3)nc3ccccc23)CC1,inactive,
CCc1ccc2nc(N(CCCN(C)C)C(=O)c3ccc4c(c3)OCCO4)sc2c1,"inconclusive: 56.2 µM [inhibitor, partial curve, poor fit]",
CN[C@H]1C[C@H]2c3[nH]c4ccccc4c3CCN2C(=O)[C@H]1[C@H](C)O,"inconclusive: 31.6 µM [inhibitor, single point]",
CC(C)n1ncc2cc(C(=O)N3CCCCc4ccccc43)cnc21,"inconclusive: 0.316 µM [inhibitor, full curve, poor fit]",
Cc1cccc(/C=C/C(=O)c2cc(Br)ccc(=O)c2O)c1,"inconclusive: 50.1 µM [inhibitor, partial curve, poor fit]",

# One compound at a time, as listed above:
# COc1cccc2cc(C(=O)C3=C(O)C(=O)N(CCN(C)C)C3c3ccc(Cl)cc3)oc12 (stereo not drawn) as listed: Potency: inconclusive: 28.2 µM [inhibitor, partial curve, poor fit]
# O=C1c2ccccc2C(=O)C1c1ccncc1 as listed: Potency: inconclusive: 20 µM [inhibitor, partial curve, poor fit]

# Additional records:

SMILES,Potency,"activity change, negative = inhibition"
COc1ccc(S(=O)(=O)c2cc3cc(C(C)(C)C)cc(O)c3oc2=O)cc1,"inconclusive: 12.6 µM [inhibitor, full curve, poor fit]",
CN(Cc1ccccc1)S(=O)(=O)c1ccccc1[N+](=O)[O-],"inconclusive: 5.62 µM [inhibitor, full curve]",
COC(=O)c1ccc(S(=O)(=O)NNC(=O)COc2ccc(C)cc2)cc1,"inconclusive: 0.316 µM [inhibitor, full curve, poor fit]",
CCOc1ccc(C(=O)NCC(=O)N2CC=C(c3ccccc3)CC2)cc1OCC,"inconclusive: 89.1 µM [inhibitor, partial curve, poor fit]",
CCOC(=O)N1C(=O)c2cc(OC)ccc2S1(=O)=O,"inconclusive: 35.5 µM [inhibitor, single point]",
O=C(CSc1nnc(Cc2cccs2)n1Cc1ccco1)Nc1cc(Cl)cc(Cl)c1,"inconclusive: 112 µM [inhibitor, single point]",
COc1ccc(NC(=O)CSC2=NC3(CCCCC3)Nc3ccccc32)cc1Cl,"inconclusive: 44.7 µM [inhibitor, partial curve, poor fit]",
Cn1c(=O)cc(NCc2ccccc2)[nH]c1=O,inactive,
CCOCCn1c(N(C)Cc2ccccc2)nc2c1c(=O)[nH]c(=O)n2C,"inactive and inconclusive: 5.01 µM [inhibitor, full curve, poor fit]",
CCOc1ccc(C2SCC(=O)N2c2c(C)n(C)n(-c3ccccc3)c2=O)cc1 (stereo not drawn),inactive,
COCCSc1ccccc1C(=O)Nc1ccc2c(c1)OCCO2,"inconclusive: 25.1 µM [inhibitor, partial curve, poor fit]",
COc1ccc(N2C(=S)NC3N2C(=S)NC3(C)c2ccccc2)cc1 (stereo not drawn),"inconclusive: 31.6 µM [inhibitor, partial curve]",
CC(C)(CC(=O)NCc1ccc(Cl)cc1Cl)CC1=NS(=O)(=O)c2ccccc2N1,"inconclusive: 63.1 µM [inhibitor, partial curve, poor fit]",
CC(=O)Nc1ccc(NC(=O)c2cc(C3CC3)nc3ccccc23)cc1,"inconclusive: 50.1 µM [inhibitor, partial curve, poor fit]",
CN(C)c1ccc(/C=C/c2nc3ccccc3c(=O)n2-c2ccc(C(=O)O)cc2)cc1,"inconclusive: 35.5 µM [inhibitor, partial curve, poor fit]",
COc1ccc(CCCNC(=O)C2(C)Cc3c(-c4cccc(C(N)=O)c4)ccnc3O2)cc1 (stereo not drawn),"inconclusive: 100 µM [inhibitor, single point]",
COc1cccc2cc(C(=O)NCCc3ccccc3)oc12,"inconclusive: 50.1 µM [inhibitor, single point]",
CCOC(=O)[C@@H]1[C@H]2COc3ccc(Br)cc3[C@@H]2N2C(=O)N(c3ccc(F)cc3)C(=O)[C@@]12C,inactive,
CCC(CC)n1c(=O)n(C[C@@H](O)CO)c2cc(C(=O)O)cnc21,"inconclusive: 89.1 µM [inhibitor, partial curve, poor fit]",
CC(C)c1ccc(C2C(C#N)=C(SCC(N)=O)NC3=C2C(=O)CCC3)cc1 (stereo not drawn),active: 44.7 µM,
CC1CCN(C(=O)COC(=O)c2ccccc2NCCO)CC1,"inconclusive: 5.01 µM [inhibitor, full curve]",

# A section from further up, for reference:
SMILES,Potency,"activity change, negative = inhibition"
CN[C@H]1C[C@H]2c3[nH]c4ccccc4c3CCN2C(=O)[C@H]1[C@H](C)O,"inconclusive: 31.6 µM [inhibitor, single point]",
CC(C)n1ncc2cc(C(=O)N3CCCCc4ccccc43)cnc21,"inconclusive: 0.316 µM [inhibitor, full curve, poor fit]",

# Next part:

SMILES,Potency,"activity change, negative = inhibition"
CCOc1ccc(C(=O)NCC(=O)OCc2cc(C(C)=O)ccc2OC)cc1,inactive,
O=C(C[C@@H]1C=C[C@@H](NC(=O)c2cccnc2)[C@@H](CO)O1)NCc1ccncn1,inactive,
Cc1c(C(=O)Nc2ccc(S(=O)(=O)Nc3ncccn3)cc2)oc2ccccc12,inactive,
Cc1cc(C)c(N(C(=O)Cn2nnc3ccccc32)C(C(=O)NC(C)(C)C)c2ccsc2)c(C)c1 (stereo not drawn),inactive,
Cc1ccc(C(=O)N2CCN(c3cccc(Cl)c3)CC2)cc1-n1c(C)nc2cccnc21,inactive,
CC[C@@]1(C(=O)O)C[C@H](C(=O)NC(CO)CO)[C@H](c2ccc(F)cc2)N1C,inactive,
O=C(CSc1ccc2c(c1)OCCO2)c1ccc2c(c1)CCC2,"inconclusive: 39.8 µM [inhibitor, partial curve, poor fit]",
N#Cc1ccccc1CNc1ccc(F)c(Cl)c1,inactive,
O=C(c1ccc(Br)o1)N1CCC(c2nc3ccccc3[nH]2)CC1,inactive,
O=C(c1ccc2c(c1)N(Cc1cccc(Cl)c1)C(=O)c1ccccc1S2(=O)=O)N1CCc2ccccc21,inactive,
C[N+]1(CC(=O)OCCCC2CCCCC2)CCOCC1,active: 11.2 µM,
CC1(C)Cc2ccccc2-c2c1c(=O)n(Cc1ccccc1)c1nnnn21,"inconclusive: 0.794 µM [inhibitor, full curve, poor fit]",
O=C(Nc1cccc(-n2cnnn2)c1)c1ccc(C(F)(F)F)cc1,"inconclusive: 50.1 µM [inhibitor, partial curve, poor fit]",
S=C(NCCc1ccccc1)N/N=C/c1ccccc1Cl,active: 39.8 µM,
CCOC(=S)SCC(=O)Nc1ncc(C)s1,"inconclusive: 126 µM [inhibitor, single point]",
CSc1ccccc1NC(=O)Nc1cccc(F)c1,"inconclusive: 70.8 µM [inhibitor, partial curve, poor fit]",
O=C(COC(=O)[C@H](Cc1ccccc1)NS(=O)(=O)c1ccccc1F)NC1CCCCC1,,inconclusive: -30.4% [inhibitor]
Cc1ccc(C(=O)N2CCC(c3n[nH]c(=O)n3Cc3ccc(F)cc3)CC2)cc1C,"inconclusive: 15.8 µM [inhibitor, full curve]",
O=C(Cn1nnc(-c2ccccc2F)n1)Nc1ccc(C(=O)N2CCOCC2)cc1,"inconclusive: 4.47 µM [inhibitor, single point]",
Cc1ccc(C(NC(=O)C2CCN(Cc3ccc(Oc4ccccc4)cc3)CC2)c2ccccn2)cc1 (stereo not drawn),"inconclusive: 8.91 µM [inhibitor, partial curve, poor fit]",
C=CCn1c(COc2ccccc2F)nnc1SCC(=O)Nc1cc2oc3ccccc3c2cc1OC,inactive,
